# At least one peptide structure holds a part that was inferred or is arguable (an end, a ring closure or a residue). Residues, ends and D or L forms follow the SMILES beside them. No end group written: not given here.
# System: Healthy albino mice
# Experiment: Serum TG elevation inhibiting action at the time of in vivo lipid loading (olive oil)
# Conditions: blood collected 3 hours after
# Method: Serum TG elevation inhibiting action at the time of in vivo lipid loading was examined on the three peptides of the invention inhibiting elevations of TG levels in blood (i.e., the peptide having the amino acid sequence of SEQ ID NO: 1 and the peptides Val-Thr-Leu and Val-Tyr-Pro synthesized by the method described in Example 4). Healthy albino mice (5-10 weeks old; body weight: about 20-30 g) were used in this experiment. To each mouse, 250 mg of olive oil and an aqueous solution of the above peptide were administered orally. Three hours thereafter, blood was collected under anesthesia with Nembutal. After separation of the blood, the TG level in blood was determined.
compound,measurement,setting,value
"CC(C)[C@H](N)C(=O)N[C@@H](Cc1ccc(O)cc1)C(=O)N1CCC[C@H]1C(=O)O [Val--Tyr--Pro, Val-Tyr-Pro] (H-Val-Tyr-Pro-OH)",Ratio of Increase in Blood TG Levels (%),dose 0.1 mg/mouse oral with 250 mg olive oil,39%
same,Ratio of Increase in Blood TG Levels (%),dose 0.2 mg/mouse oral with 250 mg olive oil,50%
same,Ratio of Increase in Blood TG Levels (%),dose 1.0 mg/mouse oral with 250 mg olive oil,50%
same,Ratio of Increase in Blood TG Levels (%),dose 2.5 mg/mouse oral with 250 mg olive oil,69%
same,Ratio of Increase in Blood TG Levels (%),dose 5.0 mg/mouse oral with 250 mg olive oil,79%
LVVYPWT [SEQ ID NO: 1],Ratio of Increase in Blood TG Levels (%),dose 1 × 10^-3 mg/mouse oral with 250 mg olive oil,65%
same,Ratio of Increase in Blood TG Levels (%),dose 1 × 10^-4 mg/mouse oral with 250 mg olive oil,33%
same,Ratio of Increase in Blood TG Levels (%),dose 4 × 10^-4 mg/mouse oral with 250 mg olive oil,33%
same,Ratio of Increase in Blood TG Levels (%),dose 4 × 10^-5 mg/mouse oral with 250 mg olive oil,14%
